Hit rate of the full screen: of about 580,000 compounds, about 6,100 (1.1%) were called active. This list was built around the results that the source calls inconclusive (neither active nor inactive); the mix of calls is not that of the screen. The call rests on the fitted dose curve; in most records, active means well fitted inhibition curve with a large enough effect; inconclusive means small, poorly fitted or top-dose-only effect, or another doubt; inactive means no such curve, though single readings can be large or run the other way. Where the call is inconclusive, the potency comes from a doubtful curve fit.
target: Polyunsaturated fatty acid lipoxygenase ALOX12 (Homo sapiens) (UniProt P18054); assay: Primary qHTS assay for inhibitors of human arachidonate 12S-lipoxygenase (ALOX12): Round 2; conditions: purified 12hLO, xylenol orange hydroperoxide absorbance; activity change, negative = inhibition: at 108 µM (top of the series) unless noted
In short: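 Hydroperoxide product was detected by ferrous iron/xylenol orange as the 573 to 405 nm absorbance ratio. Arachidonic acid at 40 uM (final) was turned over for 30 min at room temperature by 150 nM human 12hLO, pH 7.0 Hepes buffer, after 15 min compound preincubation.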
On the % scale 0 is the no-effect control and ±100 the full control effect; potency means the concentration at half of the fitted maximal effect.

The chains behind the UniProt entries cited, without tags or fusion partners. Where a name states a change or a piece, a line headed by the entry shows the natural chain unless it says otherwise.
UniProt P18054: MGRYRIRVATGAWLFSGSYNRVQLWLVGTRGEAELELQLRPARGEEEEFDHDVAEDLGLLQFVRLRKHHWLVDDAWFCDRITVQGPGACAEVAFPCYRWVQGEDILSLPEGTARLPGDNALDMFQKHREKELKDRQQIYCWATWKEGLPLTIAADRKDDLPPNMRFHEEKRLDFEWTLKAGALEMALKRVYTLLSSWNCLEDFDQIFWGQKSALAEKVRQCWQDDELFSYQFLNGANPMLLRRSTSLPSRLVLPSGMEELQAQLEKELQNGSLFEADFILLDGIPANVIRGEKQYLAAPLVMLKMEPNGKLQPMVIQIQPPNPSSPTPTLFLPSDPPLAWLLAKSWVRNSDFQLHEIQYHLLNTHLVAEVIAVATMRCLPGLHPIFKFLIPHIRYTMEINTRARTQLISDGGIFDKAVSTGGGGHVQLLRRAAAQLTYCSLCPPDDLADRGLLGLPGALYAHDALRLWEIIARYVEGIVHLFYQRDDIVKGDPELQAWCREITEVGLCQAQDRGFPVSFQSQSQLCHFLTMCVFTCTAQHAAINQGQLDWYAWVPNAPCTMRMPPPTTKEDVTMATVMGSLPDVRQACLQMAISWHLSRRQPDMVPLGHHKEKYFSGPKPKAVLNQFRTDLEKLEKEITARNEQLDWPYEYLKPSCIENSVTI

Row | Compound | activity change, negative = inhibition | Potency
1 | O=C(CCN1C(=O)c2ccccc2C1=O)N1CCN(Cc2ccc(Cl)cc2Cl)CC1 | inactive: -11.5% | 
2 | CC(C)OC(=O)C1=C(N)Oc2c(oc(CO)cc2=O)C1c1ccc(F)c(F)c1 (stereo unspecified) |  | inconclusive: 3.98 µM [inhibitor, full curve, poor fit]
3 | Oc1oc(-c2ccc(Br)cc2)nc1C=Nc1ccc(Br)cn1 |  | inconclusive: 44.7 µM [inhibitor, partial curve, poor fit]
4 | Cc1cc(=O)n2[nH]c(C(=O)O)nc2n1 |  | inconclusive: 4.47 µM [inhibitor, full curve, poor fit]
5 | CC(C)CCn1c(Sc2nc3ccccc3o2)nc2c1c(=O)[nH]c(=O)n2C |  | inconclusive: 89.1 µM [inhibitor, single point]
6 | CC(C)COc1ccc(C(=O)OCC(=O)NCc2cccs2)cc1 | inactive: -13.9% | 
7 | CNC(=O)NCc1ccc(OC)cc1 | inactive: 0.794% | 
8 | O=C1CCCC2=C1C(c1ccc(O)c(Br)c1)C1=C(CCCC1=O)O2 | inactive: 1.69% | 
9 | CC1CC(C)CN(C(=O)COC(=O)/C=C/c2ccco2)C1 (stereo unspecified) | inactive: 179% | 
10 | COc1cc(S(=O)(=O)Nc2ccncc2)ccc1F |  | inconclusive: 3.55 µM [inhibitor, full curve, poor fit]
11 | CNc1nc(-c2ccc(N(C)S(C)(=O)=O)cc2)cs1 | inactive: -76.2% | 
12 | Cc1cccc(NC(=S)NC2CCCCC2C)c1 (stereo unspecified) |  | inconclusive: 89.1 µM [inhibitor, partial curve, poor fit]
13 | O=C(O)c1cccc(Nc2ncnc3c2cnn3-c2ccccc2)c1 |  | inconclusive: 31.6 µM [inhibitor, partial curve, poor fit]
14 | CCCNC(=O)CSc1nnc(NC(=O)C2CC(=O)N(c3ccccc3OC)C2)s1 (stereo unspecified) |  | inconclusive: 39.8 µM [inhibitor, partial curve]
15 | CC1=C(/C=C/C(C)=C/C=C/C(C)=C/C=C/C=C(C)/C=C/C=C(C)/C=C/C2=C(C)C[C@@H](O)CC2(C)C)C(C)(C)C[C@H](O)C1 |  | inconclusive: 35.5 µM [inhibitor, partial curve, poor fit]
16 | COc1ccc(Cl)cc1NC(=O)c1cn(C2CCCCC2)c(=O)c2c1c1ccccc1n2C | inactive: -21.2% | 
17 | CCc1nnc(C(=O)Nc2cccc(C(=O)N3CCOCC3)c2)s1 | inactive: 11.2% | 
18 | Cc1cc(C=O)c(C)n1-c1ccc2c(c1)OCO2 |  | inconclusive: 28.2 µM [inhibitor, single point]
19 | COc1cc(C)nc2nc(SCc3ccccc3)nn12 |  | inconclusive: 0.891 µM [inhibitor, full curve, poor fit]
20 | COc1ccc2c(=O)c3c(=O)n(Cc4ccccc4)c(C(C)C)nc3oc2c1 |  | inconclusive: 112 µM [inhibitor, single point]
21 | COc1ccc(CNC(=O)c2cc(-c3ccc(C)cc3)nc3n[nH]c(-c4ccc(Br)cc4)c23)cc1 | inactive: 4.75% | 
22 | Cc1ccccc1-c1nc(CN(Cc2c(C)nn(C)c2C)C2CC2)c(C)o1 | inactive: 3.66% | 
23 | Cc1ccnc(SC2CC(=O)N(c3ccccc3)C2=O)n1 (stereo unspecified) |  | inconclusive: 100 µM [inhibitor, single point]
24 | Cn1ncc(N2CCN(c3cc(C4CC(O)C4)nc(N)n3)CC2)cc1=O (stereo unspecified) | inactive: 10.3% | 

Row | Compound | activity change, negative = inhibition | Potency
25 | NS(=O)(=O)c1ccc(NC(=O)CN2C(=O)COc3ccc(Cl)cc32)cc1 |  | active: 44.7 µM
26 | O=C(CCCOC(=O)c1ccc(O)cc1O)c1ccc(Br)cc1 |  | inconclusive: 7.08 µM [inhibitor, full curve, poor fit]
27 | COc1ccc(C(=O)Oc2ccc(C(C)(C)C)cc2Br)cc1 | inactive: -49.6% | 
28 | COc1ccc(C(=O)OCCN2CCN(C3=NS(=O)(=O)c4ccccc43)CC2)cc1OC |  | inconclusive: 141 µM [inhibitor, partial curve, poor fit]
29 | Cc1cc(NC(=O)CC#N)n(-c2ccccc2)n1 |  | inconclusive: 141 µM [inhibitor, partial curve, poor fit]
30 | N#Cc1cccc(C(=O)Nc2ccccc2C(=O)NC2CC2)c1 |  | inconclusive: 79.4 µM [inhibitor, single point]
31 | O=C(O)c1ccc2nc(-c3cc4cccc(O)c4oc3=O)[nH]c2c1 | inactive: -29.5% | 
32 | CCCSc1nnc(N2C(=O)C(O)=C(C(=O)c3ccco3)C2c2ccccc2F)s1 (stereo unspecified) |  | active: 39.8 µM
33 | O=C1OC(CN2CCOCC2)CN1/N=C/c1ccc([N+](=O)[O-])o1 (stereo unspecified) |  | inconclusive: 15.8 µM [inhibitor, partial curve, poor fit]
34 | c1ccc2c(c1)[nH]c1c(C3=NCCC3)nccc12 | inactive: 22.1% | 
35 | c1ccc(CCc2nn3c(Cn4cnc5ccccc54)nnc3s2)cc1 |  | inconclusive: 50.1 µM [inhibitor, partial curve, poor fit]
36 | O=[N+]([O-])c1ccc(N2CCN(CC3CCCCC3)CC2)cc1 |  | inconclusive: 0.447 µM [inhibitor, full curve, poor fit]
37 | COc1ccccc1C=C1CCc2ccccc2C1=O |  | inconclusive: 44.7 µM [inhibitor, partial curve, poor fit]
38 | CN1CCCN(C(=O)c2ccc(Cl)cc2)c2ccccc21 |  | active: 31.6 µM
39 | CN1CCN(C(=S)c2ccc([N+](=O)[O-])cc2)CC1 |  | inconclusive: 44.7 µM [inhibitor, partial curve, poor fit]
40 | CCN(c1ccccc1)c1ccc2cc(S(=O)(=O)N3CCCC3)ccc2n1 |  | inconclusive: 50.1 µM [inhibitor, partial curve, poor fit]
41 | Oc1ccc2ccc(Cl)cc2c1 |  | inconclusive: 44.7 µM [inhibitor, partial curve, poor fit]
42 | N#C/C(=C\c1ccc(-c2ccc(Br)cc2)o1)C(=O)c1ccccc1 |  | inconclusive: 50.1 µM [inhibitor, partial curve, poor fit]
43 | Cc1ccc(C(=O)N2CCCC(c3nn(-c4ccc(Cl)cc4)c(=O)[nH]3)C2)cc1 (stereo unspecified) |  | inconclusive: 56.2 µM [inhibitor, partial curve, poor fit]
44 | COc1ccc2c(c1)CCc1c(C(=O)Nc3c(C)nn(Cc4ccccc4C)c3C)noc1-2 |  | inconclusive: 89.1 µM [inhibitor, partial curve, poor fit]
45 | COC(=O)[C@@H]1CCCN1C(=O)c1cnn(-c2ncc3c(n2)-c2ccccc2CCC3)c1C1CC1 | inactive: 7.7% | 
46 | O=C(NCCc1ccco1)c1ccc(CN2C(=O)CSc3ncccc32)cc1 |  | inconclusive: 28.2 µM [inhibitor, partial curve, poor fit]
47 | COc1ccc2cc(C3(C)NC(=O)N(CC(=O)NCCC4=CCCCC4)C3=O)ccc2c1 (stereo unspecified) |  | inconclusive: 50.1 µM [inhibitor, partial curve, poor fit]
48 | Oc1ccccc1/C=N/Nc1cc(N2CCCC2)nc(N2CCCC2)n1 |  | inconclusive: 126 µM [inhibitor, single point]

Entries of single compounds, quoted from the list.
O=C(O)c1ccc2nc(-c3cc4cccc(O)c4oc3=O)[nH]c2c1 as listed: activity change, negative = inhibition: inactive: -29.5%
COc1ccccc1C=C1CCc2ccccc2C1=O as listed: Potency: inconclusive: 44.7 µM [inhibitor, partial curve, poor fit]

Structures shown so far that contain a cyano group, in the order listed:
Row | Compound | activity change, negative = inhibition | Potency
29 | Cc1cc(NC(=O)CC#N)n(-c2ccccc2)n1 |  | inconclusive: 141 µM [inhibitor, partial curve, poor fit]
30 | N#Cc1cccc(C(=O)Nc2ccccc2C(=O)NC2CC2)c1 |  | inconclusive: 79.4 µM [inhibitor, single point]
42 | N#C/C(=C\c1ccc(-c2ccc(Br)cc2)o1)C(=O)c1ccccc1 |  | inconclusive: 50.1 µM [inhibitor, partial curve, poor fit]

Next records.

Row | Compound | activity change, negative = inhibition | Potency
49 | O=C1c2c(O)cc(O)cc2O[C@H](c2cc(O)c(O)c(O)c2)[C@H]1O |  | inconclusive: 3.85 µM [inhibitor, full curve, poor fit]
50 | O=C(Nc1nc(-c2ccccc2)cs1)c1ccco1 | inactive: 0% | 
51 | CN=c1scc(-c2ccccc2)n1C |  | inconclusive: 31.6 µM [inhibitor, partial curve, poor fit]
52 | CC(C)CNC(=O)C1CCc2sc(C(=O)N3CCCCC3)cc2C1 (stereo unspecified) | inactive: 31.2% | 
53 | Cc1nc(NS(=O)(=O)c2ccccc2)sc1C(C)(C)C | inactive: -17% | 
54 | NCc1ccc2[nH]ccc2c1 |  | inconclusive: 70.8 µM [inhibitor, partial curve, poor fit]
55 | Cc1ccc2nc(SCC(=O)c3c(N)n(C4CC4)c(=O)[nH]c3=O)[nH]c2c1 |  | inconclusive: 89.1 µM [inhibitor, single point]
56 | O=S(=O)(NC[C@H]1O[C@@H](CO)[C@@H](O)[C@H]1N1CCOCC1)c1cccs1 |  | inconclusive: 12.6 µM [inhibitor, partial curve]
57 | CCN(CC)S(=O)(=O)c1cccc(C(=O)Nc2ccc(C#N)cc2)c1 | inactive: -3.55% | 
58 | Cc1cc(CSc2nnc(-c3ccc(Cl)cc3)n2Cc2ccco2)on1 |  | inconclusive: 50.1 µM [inhibitor, single point]
59 | CCOC(=O)c1c(C(=O)OCC)c(C)n(N2C(=O)CSC2=S)c1C |  | inconclusive: 35.5 µM [inhibitor, single point]
60 | CCCCn1nnnc1SCC(=O)Nc1sc2c(c1C#N)CCCC2 |  | inconclusive: 89.1 µM [inhibitor, partial curve, poor fit]
61 | Cc1cc(=O)oc(C)c1C(=O)N1CCN(C(c2ccccc2)c2ccccc2)CC1 | inactive: 23.9% | 
62 | COC(=O)Nc1ccc(SCC(=O)c2ccccc2)cc1 | inactive: 6.4% | 
63 | Cc1ccc(-c2nc3ccccc3nc2Cl)cc1 | inactive: 0.777% | 
64 | Cc1nc(N2CCC(C(=O)Nc3ccc(Br)cc3F)CC2)c2c(C)c(C)oc2n1 | inactive: 2.43% | 
65 | CN(CC(=O)NCC(F)(F)F)Cc1ccccc1 | inactive: 1.59% | 
66 | COC(=O)c1ccc(-c2nc(-c3cccs3)no2)cc1 |  | inconclusive: 112 µM [inhibitor, single point]
67 | COC(=O)N/N=C/c1cccc([N+](=O)[O-])c1 | inactive: 82.9% | 
68 | O=C(NNc1cccc(Cl)n1)Nc1ccccc1F | inactive: -3.87% | 
69 | COc1ccccc1N(Cc1ccccc1)S(=O)(=O)c1cccc(C(=O)NC2CC(C)(C)NC(C)(C)C2)c1 |  | inconclusive: 4.47 µM [inhibitor, full curve, poor fit]
70 | Cc1ccsc1C(=CCCN1CCC[C@@H](C(=O)O)C1)c1sccc1C |  | inconclusive: 17.8 µM [inhibitor, full curve, poor fit]
71 | c1csc(CNCCCN2CCCCC2)c1 |  | inconclusive: 44.7 µM [inhibitor, partial curve, poor fit]

Reference: PubChem BioAssay AID1671190 (National Center for Advancing Translational Sciences (NCATS), 2021)
